37 targets from the supplement of paper PMC12067093, “Discovery and optimisation of a covalent ligand for TRIM25 and its application to targeted protein ubiquitination” (Chemical Science, 2025) can be followed below.

The list shows a part of the results.
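Also: competitive chemoproteomic profiling in live THP-1 cells with an iodoacetamide desthiobiotin (IA-DTB) probe, comparing probe-labelled peptide intensities in compound-treated cells against DMSO-treated controls.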

Compound in the first assay: CC1Cc2ccccc2N1C(=O)C1CCCN(C1)C(=O)CCl (mixture of isomers) [TRIM25 ligand 11 (diastereomer mixture)]
Kind of assay: probe-labelled cysteine peptide fold change vs DMSO (competition) (log2 fold change); higher = less target engagement (more negative = stronger competition). To be noted: 10 µM; THP-1; incubation time: 4 h.
For “KATNA1_O75449_491_WIFEFGSC (UniProt O75449)”, the “probe-labelled cysteine peptide fold change” value was -0.258.

On to “KANSL3_Q9P2N6_103_SVMNECER (UniProt Q9P2N6)”, for which the “probe-labelled cysteine peptide fold change” value was -0.0366.

Consider “ITPA_Q9BY32_33_FPCTLVAQK (UniProt Q9BY32)”, for which the “probe-labelled cysteine peptide fold change” value stood at 0.156.

For “JMJD4_Q9H9V9_188_DWHLCR (UniProt Q9H9V9)”, the “probe-labelled cysteine peptide fold change” value amounted to 0.0684.

With “KDM2B_Q8NHM5_770_RSECEEAPR (UniProt Q8NHM5)”, the “probe-labelled cysteine peptide fold change” value was determined as 0.117.

For the target “ITPK1_Q13572_126_KIEAYMEDDRICSPPFMELTSLCGDDTMR (UniProt Q13572)”, the “probe-labelled cysteine peptide fold change” value was -0.0554.

Regarding “KIAA0100_Q14667_1595_GAETEGCVIVSAAK (UniProt Q14667)”, the “probe-labelled cysteine peptide fold change” value is -0.158.

For the target “KHNYN_O15037_221_SSALLGAQCQGVR (UniProt O15037)”, the “probe-labelled cysteine peptide fold change” value was -0.0601.

In the case of “KAT8_Q9H7Z6_63_GEPEVTVEIGETYLCR (UniProt Q9H7Z6)”, the “probe-labelled cysteine peptide fold change” value worked out at 0.0574.

In the case of “KIF15_Q9NS87_1062_ILSEDIERDMLCEDLAHATEQLNMLTEASK (UniProt Q9NS87)”, the “probe-labelled cysteine peptide fold change” value is -0.0139.

Take “KAT2A_Q92830_815_EYNPPDSEYCR (UniProt Q92830)”: the “probe-labelled cysteine peptide fold change” value was -0.124.

Consider “IVNS1ABP_Q9Y6Y0_454_CNAGVCALNGK (UniProt Q9Y6Y0)”, for which the “probe-labelled cysteine peptide fold change” value is -0.13.

As for “KCTD9_Q7L273_220_CQGLNFSGADLSR (UniProt Q7L273)”, the “probe-labelled cysteine peptide fold change” value worked out at 0.0726.

Consider “KARS_Q15046_427_ILDDICVAK (UniProt Q15046)”, for which the “probe-labelled cysteine peptide fold change” value is -0.0694.

With “KIF11_P52732_25_CRPFNLAER (UniProt P52732)”, the “probe-labelled cysteine peptide fold change” value came out at 0.0374.

Consider “KANK2_Q63ZY3_389_SQEVVETMCPVPAAATSNVHMVK (UniProt Q63ZY3)”, for which the “probe-labelled cysteine peptide fold change” value is 0.0031.

Take “IVD_P26440_261_GSNTCELIFEDCK (UniProt P26440)”: the “probe-labelled cysteine peptide fold change” value was 0.184.

With “KDM2A_Q9Y2K7_582_ACVQGECGVCHYCR (UniProt Q9Y2K7)”, the “probe-labelled cysteine peptide fold change” value is 0.145.

On to “KAT2A_Q92830_695_VYPGLSCFK (UniProt Q92830)”, for which the “probe-labelled cysteine peptide fold change” value turned out to be 0.0125.

For the target “KANK1_Q14678_907_ITGNYLGYTCK (UniProt Q14678)”, the “probe-labelled cysteine peptide fold change” value was 0.02.

For the target “KIF11_P52732_723_QTHSQELCK (UniProt P52732)”, the “probe-labelled cysteine peptide fold change” value was -0.0306.

Staying with this assay, now noted: 50 µM; THP-1; incubation time: 4 h.
As to “KDM1A_O60341_618+623_CDAVLCTLPLGVLK (UniProt O60341)”, the “probe-labelled cysteine peptide fold change” value stood at 0.0371.

As for “KDM3A_Q9Y4C1_251_IVDPSLIHVEVVHDNLVTCGNSAR (UniProt Q9Y4C1)”, the “probe-labelled cysteine peptide fold change” value was -0.258.

For “KANK1_Q14678_1292_LLLAQPGCNGHLEDNDGSTALSIALEAGHK (UniProt Q14678)”, the “probe-labelled cysteine peptide fold change” value was 0.277.

Turning to “KAT6B_Q8WYB5_837_GCHLVGYFSK (UniProt Q8WYB5)”, the “probe-labelled cysteine peptide fold change” value worked out at 0.171.

Regarding “KCTD18_Q6PI47_56_TDESGACVIDR (UniProt Q6PI47)”, the “probe-labelled cysteine peptide fold change” value turned out to be 0.0972.

Regarding “KDM1A_O60341_600_YTASGCEVIAVNTR (UniProt O60341)”, the “probe-labelled cysteine peptide fold change” value is 0.139.

Regarding “KHNYN_O15037_245_ESLDTGSMGPGDCR (UniProt O15037)”, the “probe-labelled cysteine peptide fold change” value was -0.355.

For the target “KDELC1_Q6UW63_493_VEPQTEDDLFPCTCHR (UniProt Q6UW63)”, the “probe-labelled cysteine peptide fold change” value stood at 0.143.

As for “KDELC2_Q7Z4H8_141_GPVYHEYCECPEDPQAWQK (UniProt Q7Z4H8)”, the “probe-labelled cysteine peptide fold change” value is -0.0237.

Take “ITPR1_Q14643_1197_LCVQESASVR (UniProt Q14643)”: the “probe-labelled cysteine peptide fold change” value stood at 0.213.

Turning to “ITPR3_Q14573_2455_ACDTLLMCIVTVMNHGLR (UniProt Q14573)”, the “probe-labelled cysteine peptide fold change” value turned out to be 0.264.

In the case of “KIAA0100_Q14667_1055_LVGTEQSGQPCSR (UniProt Q14667)”, the “probe-labelled cysteine peptide fold change” value was -0.019.

For “KDM3B_Q7LBC6_937_EQEQDDSTVACR (UniProt Q7LBC6)”, the “probe-labelled cysteine peptide fold change” value was found to be 0.3.

Regarding “KDM4A_O75164_533_DSISSDSETSEPLSCR (UniProt O75164)”, the “probe-labelled cysteine peptide fold change” value came out at 0.0408.

With “IVD_P26440_254+261_GSNTCELIFEDCK (UniProt P26440)”, the “probe-labelled cysteine peptide fold change” value was 0.0743.

With “IVD_P26440_355_ACDEGHCTAK (UniProt P26440)”, the “probe-labelled cysteine peptide fold change” value was determined as 0.133.

As for “KATNA1_O75449_491_WIFEFGSC (UniProt O75449)”, the “probe-labelled cysteine peptide fold change” value came out at 0.00115.

On to “KANSL3_Q9P2N6_103_SVMNECER (UniProt Q9P2N6)”, for which the “probe-labelled cysteine peptide fold change” value stood at 0.0848.

For the target “ITPA_Q9BY32_33_FPCTLVAQK (UniProt Q9BY32)”, the “probe-labelled cysteine peptide fold change” value worked out at 0.306.

For the target “JMJD4_Q9H9V9_188_DWHLCR (UniProt Q9H9V9)”, the “probe-labelled cysteine peptide fold change” value was found to be 0.068.

In the case of “KDM2B_Q8NHM5_770_RSECEEAPR (UniProt Q8NHM5)”, the “probe-labelled cysteine peptide fold change” value was determined as 0.0231.

Turning to “ITPK1_Q13572_126_KIEAYMEDDRICSPPFMELTSLCGDDTMR (UniProt Q13572)”, the “probe-labelled cysteine peptide fold change” value was -0.18.

Take “KIAA0100_Q14667_1595_GAETEGCVIVSAAK (UniProt Q14667)”: the “probe-labelled cysteine peptide fold change” value is -0.147.

On to “KHNYN_O15037_221_SSALLGAQCQGVR (UniProt O15037)”, for which the “probe-labelled cysteine peptide fold change” value was -0.394.

For “KAT8_Q9H7Z6_63_GEPEVTVEIGETYLCR (UniProt Q9H7Z6)”, the “probe-labelled cysteine peptide fold change” value was determined as 0.211.

As to “KIF15_Q9NS87_1062_ILSEDIERDMLCEDLAHATEQLNMLTEASK (UniProt Q9NS87)”, the “probe-labelled cysteine peptide fold change” value is -0.136.

As for “KAT2A_Q92830_815_EYNPPDSEYCR (UniProt Q92830)”, the “probe-labelled cysteine peptide fold change” value is -0.152.

Turning to “IVNS1ABP_Q9Y6Y0_454_CNAGVCALNGK (UniProt Q9Y6Y0)”, the “probe-labelled cysteine peptide fold change” value was -0.103.

As to “KCTD9_Q7L273_220_CQGLNFSGADLSR (UniProt Q7L273)”, the “probe-labelled cysteine peptide fold change” value turned out to be 0.0948.

With “KARS_Q15046_427_ILDDICVAK (UniProt Q15046)”, the “probe-labelled cysteine peptide fold change” value was -0.146.

For “KIF11_P52732_25_CRPFNLAER (UniProt P52732)”, the “probe-labelled cysteine peptide fold change” value amounted to 0.0242.

“KANK2_Q63ZY3_389_SQEVVETMCPVPAAATSNVHMVK (UniProt Q63ZY3)”: the “probe-labelled cysteine peptide fold change” value was -0.293.

As to “IVD_P26440_261_GSNTCELIFEDCK (UniProt P26440)”, the “probe-labelled cysteine peptide fold change” value was 0.144.

As to “KDM2A_Q9Y2K7_582_ACVQGECGVCHYCR (UniProt Q9Y2K7)”, the “probe-labelled cysteine peptide fold change” value was 0.0604.

As for “KAT2A_Q92830_695_VYPGLSCFK (UniProt Q92830)”, the “probe-labelled cysteine peptide fold change” value amounted to 0.0252.

With “KANK1_Q14678_907_ITGNYLGYTCK (UniProt Q14678)”, the “probe-labelled cysteine peptide fold change” value worked out at 0.141.

In the case of “KIF11_P52732_723_QTHSQELCK (UniProt P52732)”, the “probe-labelled cysteine peptide fold change” value is -0.0307.
